These are yes or no findings as the source states them, for the method shown. Binding seen in cells or lysates may run through a third protein. Some results given as binding are weak or reduced against the parent protein; the word gives no strength. For some of these results: Tags and fused reporters may be left off the sequences shown.
Columns and labels:
Assay in all cases: co-IP
GFP-UBE2J2 = biological target: T1, GFP-UBE2J2 (UniProt Q8N2K1)
T1 sequence: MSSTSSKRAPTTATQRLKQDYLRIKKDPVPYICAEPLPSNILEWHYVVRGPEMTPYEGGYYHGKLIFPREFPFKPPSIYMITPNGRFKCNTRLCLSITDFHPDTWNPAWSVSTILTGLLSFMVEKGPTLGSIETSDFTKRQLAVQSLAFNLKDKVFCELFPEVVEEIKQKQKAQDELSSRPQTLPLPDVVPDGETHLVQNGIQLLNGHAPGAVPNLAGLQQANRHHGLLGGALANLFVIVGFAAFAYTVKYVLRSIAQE

By UniProt entry, the sequences of proteins in these tests, tags left out. Where a name states a change or a piece, a line headed by the entry shows the natural chain unless it says otherwise.
UniProt Q9BY78: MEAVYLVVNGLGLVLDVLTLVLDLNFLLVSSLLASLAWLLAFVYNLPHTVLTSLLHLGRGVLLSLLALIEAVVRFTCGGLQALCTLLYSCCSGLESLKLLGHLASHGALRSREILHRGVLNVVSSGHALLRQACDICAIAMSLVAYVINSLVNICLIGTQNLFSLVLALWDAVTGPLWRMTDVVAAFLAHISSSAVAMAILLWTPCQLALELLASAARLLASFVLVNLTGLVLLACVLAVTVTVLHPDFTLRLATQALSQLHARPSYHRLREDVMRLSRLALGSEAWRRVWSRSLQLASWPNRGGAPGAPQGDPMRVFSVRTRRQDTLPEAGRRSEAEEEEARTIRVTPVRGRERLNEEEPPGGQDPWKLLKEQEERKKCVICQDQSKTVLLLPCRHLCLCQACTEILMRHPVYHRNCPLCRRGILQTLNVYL

GFP-UBE2J1 wild type = biological target: T2, GFP-UBE2J1 wild type (UniProt Q9Y385)
T2 sequence: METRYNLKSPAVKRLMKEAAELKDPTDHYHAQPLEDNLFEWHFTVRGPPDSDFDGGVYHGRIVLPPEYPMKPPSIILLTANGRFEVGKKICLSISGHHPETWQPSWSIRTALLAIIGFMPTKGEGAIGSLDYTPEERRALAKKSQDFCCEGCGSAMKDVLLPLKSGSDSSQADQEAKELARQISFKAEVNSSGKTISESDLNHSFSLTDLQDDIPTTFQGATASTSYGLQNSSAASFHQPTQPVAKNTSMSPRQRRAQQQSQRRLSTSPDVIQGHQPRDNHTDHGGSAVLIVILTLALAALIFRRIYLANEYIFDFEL

RFP-RNF26 wild type = RFP-RNF26 wild type (UniProt Q9BY78)
RFP-RNF26 I382R = RFP-RNF26 I382R (UniProt Q9BY78)

## RFP-RNF26 wild type (from UniProt Q9BY78 1-433) (enzyme)
GFP-UBE2J2
  binding: binds
GFP-UBE2J1 wild type
  binding: binds

B1: endogenous UBE2J1 (enzyme, UniProt Q9Y385 1-318)
chain: T2 sequence
RFP-RNF26 wild type
  binding: binds
RFP-RNF26 I382R
  binding: binds
